Values from PubChem BioAssay AID1159578 (Peter MacCallum Cancer Centre, 2015)
Assay: 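Knock-downs that alter how fast lymphatic endothelial cells migrate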 (primary screen). System: human lymphatic endothelial cells. Reagents: siRNA pool against human genes, 40 nM. Duration: 48 h after transfection. Measured: 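Cells stained with dye and imaged after a scratch; covered wound area and nuclei counted, duplicates averaged, migration set against mock wells and turned into a robust z-score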. Reading the numbers: migration robust z-score: higher = faster migration into the scratch; nuclei per well: higher = more cells in the well. Rule for the call: 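Migration changed when robust z exceeds 2 or falls below -2 and mean nuclei number is at least 3300; otherwise not called changed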. Meaning of the calls: active = migration changed; inactive = no migration change, or too few cells.
This is one part, drawn at random, of about 18,000 deposited reagents. About 1,030 of them (5.7%) were called active. 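Inactive calls also include pools with fewer than 3300 nuclei, whose migration was not assessed.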 Raw values are not corrected between plates. A number with no mark means an inactive call. Further read-outs or replicates are left out here.

Depletion of SERHL2 resulted in: migration robust z-score -0.62; nuclei per well, duplicate mean 4965.
ZBTB32 scored migration robust z-score 0.31; nuclei per well, duplicate mean 5515.
Silencing of IQCE resulted in: migration robust z-score -1.12; nuclei per well, duplicate mean 6366.
For ANKRD44, the entry reads migration robust z-score -0.27; nuclei per well, duplicate mean 3930.
MTF1 scored migration robust z-score -1.5; nuclei per well, duplicate mean 5455.
Against LOC644006, the values are migration robust z-score -1.77; nuclei per well, duplicate mean 5500.
With knock-down of KRT6C the results were migration robust z-score -0.9; nuclei per well, duplicate mean 6413.
After knock-down of RGS12, the record shows migration robust z-score 0.06; nuclei per well, duplicate mean 3992.
Knock-down of SRCIN1 came out at: migration robust z-score -1.55; nuclei per well, duplicate mean 4282.
With knock-down of RANBP3, the record shows migration robust z-score 1.79; nuclei per well, duplicate mean 6308.
Knock-down of HERC3 came out at: migration robust z-score -1.71; nuclei per well, duplicate mean 5866.

2 entries from above, reformatted:
Gene,migration robust z-score,"nuclei per well, duplicate mean"
MTF1,-1.5,5455
LOC644006,-1.77,5500

Next reagents follow:
TTLL9 scored migration robust z-score -0.91; nuclei per well, duplicate mean 5405.
With knock-down of TUBA4A, the record shows migration robust z-score -3.76; nuclei per well, duplicate mean 3174.
Depletion of CKMT1A resulted in: migration robust z-score 1.22; nuclei per well, duplicate mean 6030.
For IL31, the values are migration robust z-score -0.36; nuclei per well, duplicate mean 5568.
Silencing of SMC2 gave: migration robust z-score -0.1; nuclei per well, duplicate mean 4724.
With knock-down of PDS5B, the record shows migration robust z-score -0.13; nuclei per well, duplicate mean 5796.
For ITGA4, the values are migration robust z-score -0.34; nuclei per well, duplicate mean 6985.
For ZNF142, the values are migration robust z-score 1.28; nuclei per well, duplicate mean 5706.
Against TMA7, the values are migration robust z-score -0.08; nuclei per well, duplicate mean 5632.
TMEM52 showed migration robust z-score 0.84; nuclei per well, duplicate mean 5764.
